Measurements from patent publication US20090029979A1, “5-HTX MODULATORS” (BIO-MEDISINSK INNOVASJON AS, priority 2005, published 2009).
At least one structure is not confirmed: it was looked up by name or label, or the drawing left a doubt.

Amino acid sequences for entries named in this document (tags omitted). A change or cut given only in a name is not applied to a line headed by its entry.
UniProt Q13639: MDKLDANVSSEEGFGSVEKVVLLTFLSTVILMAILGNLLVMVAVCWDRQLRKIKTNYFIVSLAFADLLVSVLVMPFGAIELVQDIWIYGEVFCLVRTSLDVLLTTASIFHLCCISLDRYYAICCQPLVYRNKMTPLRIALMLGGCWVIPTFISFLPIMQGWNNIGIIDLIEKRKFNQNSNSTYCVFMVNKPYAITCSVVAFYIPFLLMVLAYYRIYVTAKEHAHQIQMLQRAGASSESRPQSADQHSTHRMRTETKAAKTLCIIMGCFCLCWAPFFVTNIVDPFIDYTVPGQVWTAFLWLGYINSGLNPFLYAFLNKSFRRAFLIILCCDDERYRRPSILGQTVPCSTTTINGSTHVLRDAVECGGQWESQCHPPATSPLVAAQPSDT

Molecular target: T1, human 5-HT4(b) receptors (Homo sapiens, UniProt Q13639)
T1 construct: expressed in transfected cells
Experiment: Adenylyl cyclase assay in membranes of HEK293 cells stably expressing human 5-HT4(b) receptors
Format: biochemical
Protocol: The development of HEK293 cell lines stably expressing human 5-HT4(b) receptors was described and published previously (Bach et al. 2001). Briefly, HEK293 cells (ATCC) were grown in Dulbecco's modified Eagle's medium with 10% fetal calf serum and penicillin (100 U/ml) and streptomycin (100 μg/ml). Cells were transfected with plasmid DNA (pcDNA3.1(−) containing human 5-HT4(b) receptor cDNA) using SuperFect Transfection Reagent (QIAGEN) according to the manufacturers protocol. […]
Adenylyl cyclase activity was measured by determining conversion of [α-^32P]ATP to [^32P]cAMP in membranes prepared in STE by homogenization of cells grown and washed as described above in a Dounce glass-glass homogenizer by 10 strokes with the tight-fitting pestle. […] Adenylyl cyclase activities were measured on 10-μl aliquots in a final volume of 50 μl in the presence of 0.1 mM [α-^32P]ATP (1-2×10^6 cpm/assay), 4 mM MgCl2, 20 μM GTP, 1 mM EDTA, 1 mM [^3H]cAMP (ca. 10,000 cpm/assay), 1 μM 3-isobutyl-1-methyl xanthine (IBMX; Sigma), a nucleoside triphosphate regenerating system consisting of 20 mM creatine phosphate (Sigma), 0.2 mg/ml creatine phosphokinase (Sigma) and 40 U/ml myokinase (Sigma) and additives described in the text and figures. […] Cyclic AMP formed was quantified by the double column chromatography system of Salomon et al. (1974) as modified by Bockaert et al. (1976). […]

## O=C(O)CCCN1CCC(CNC(=O)c2c3n(c4ccccc24)CCCO3)CC1 [Example 52]
  Agonist/Antagonist properties: Antagonist
